Values from PubChem BioAssay AID743454 (Peter MacCallum Cancer Centre, 2014).
Assay: 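Knock-downs lowering viability or raising caspase 3/7 activity in vorinostat-treated resistant cells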 (primary screen). System: human HCT116-VR colon cancer cells, selected for vorinostat resistance. Reagents: siRNA pool against human genes, 40 nM siRNA pool. Timing: vorinostat for 24 h, read-out about 72 h after transfection. Challenge: vorinostat at 2.5 µM final. Measurement: 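Cell viability by CellTiter-Fluor and caspase 3/7 activity by luminescence, each scaled to mock wells per plate, duplicates averaged, then robust z-scored over all plates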. Scale: viability robust z-score: higher = more viable cells than screen typical; caspase robust z-score: higher = more caspase 3/7 activity than screen typical. Call rule: 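Hits are knock-downs in viability class RV1/RV2 or caspase class CA1/CA2, excluding ones that killed cells in the no-drug cell-count arm; hits then retested with single siRNAs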.
The deposit covers about 18,000 reagents; below is a part drawn at random. Over the whole deposit, 450 (2.5%) were called active. 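Single biological run; no consistent viability z cut-off exists, so the class columns, not z-scores, define the calls.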 A number with no mark means an inactive call. Reagent sequences are not shown.

target	viability hit class	caspase hit class	viability robust z-score	caspase robust z-score
OR13C8	no change	no change	-0.07	-0.06
HFM1	no change	no change	0.62	-0.68
MAPRE3	no change	no change	-0.24	-0.6
SCML1	no change	no change	0.26	-0.43
JCHAIN	no change	no change	-1.07	3.67
ACSF2	no change	no change	-0.54	-1
WRAP53	no change	no change	0.01	0.4
SOCS4	no change	no change	-0.08	-0.73
GRK4	no change	no change	1	-0.74
TCEA1	no change	no change	0.66	-0.03
PTCHD1	no change	no change	-0.25	1.21
PSTPIP2	no change	no change	0.76	0.92
SIGLEC11	no change	no change	-0.73	1.45
RGPD2	no change	no change	-0.82	0.84
ADGRA1	no change	no change	-0.28	0.04
CCDC59	no change (active)	CA2 (caspase activation)	-1.27	5.75
MAP3K5	no change	no change	0.1	-1.11
MRPL20	no change	no change	0.7	0.03
FZD4	no change	no change	1.07	-0.18
RAMAC	no change	no change	1.06	0.48
SPATA20	no change	no change	0.16	-0.02
BARD1	no change	no change	-1.09	-0.36
ZNF684	no change	no change	-1.56	0.93
PC	no change	no change	0.06	-1.12
MARK2	no change	no change	-0.26	0.58
MYO9B	no change	no change	-0.22	-0.25
DDX50	no change	no change	1.65	-0.16
HIF1A	no change	no change	0.62	0.76
OR4K2	no change	no change	-0.31	-0.6
BCAP31	no change	no change	-1.12	0.08
ARHGAP9	no change	no change	-0.84	0.33
FOCAD	no change	no change	0.06	-0.12
SUN2	no change	no change	-0.42	2.27
LAMC3	no change	no change	-0.1	-0.8
CCR1	no change	no change	-0.06	-0.66
BTNL8	no change	no change	0.53	-1.12
ASIC2	no change	no change	-1.73	-0.16

Laid out differently: 12 of the entries above
{"target": "MRPL20", "viability hit class": "no change", "caspase hit class": "no change", "viability robust z-score": 0.7, "caspase robust z-score": 0.03}
{"target": "FZD4", "viability hit class": "no change", "caspase hit class": "no change", "viability robust z-score": 1.07, "caspase robust z-score": -0.18}
{"target": "RAMAC", "viability hit class": "no change", "caspase hit class": "no change", "viability robust z-score": 1.06, "caspase robust z-score": 0.48}
{"target": "SPATA20", "viability hit class": "no change", "caspase hit class": "no change", "viability robust z-score": 0.16, "caspase robust z-score": -0.02}
{"target": "BARD1", "viability hit class": "no change", "caspase hit class": "no change", "viability robust z-score": -1.09, "caspase robust z-score": -0.36}
{"target": "ZNF684", "viability hit class": "no change", "caspase hit class": "no change", "viability robust z-score": -1.56, "caspase robust z-score": 0.93}
{"target": "PC", "viability hit class": "no change", "caspase hit class": "no change", "viability robust z-score": 0.06, "caspase robust z-score": -1.12}
{"target": "MARK2", "viability hit class": "no change", "caspase hit class": "no change", "viability robust z-score": -0.26, "caspase robust z-score": 0.58}
{"target": "MYO9B", "viability hit class": "no change", "caspase hit class": "no change", "viability robust z-score": -0.22, "caspase robust z-score": -0.25}
{"target": "DDX50", "viability hit class": "no change", "caspase hit class": "no change", "viability robust z-score": 1.65, "caspase robust z-score": -0.16}
{"target": "HIF1A", "viability hit class": "no change", "caspase hit class": "no change", "viability robust z-score": 0.62, "caspase robust z-score": 0.76}
{"target": "OR4K2", "viability hit class": "no change", "caspase hit class": "no change", "viability robust z-score": -0.31, "caspase robust z-score": -0.6}

Further results follow.
target	viability hit class	caspase hit class	viability robust z-score	caspase robust z-score
ASB14	no change	no change	-0.22	0.44
DDIT4	no change	no change	1.26	-0.3
GABPB1	no change	no change	-1.02	0.48
CYGB	no change	no change	0	-0.18
USP29	no change	no change	2.04	-0.67
CIMIP2A	no change	no change	0.52	-0.97
HAUS6	no change	no change	-1.1	0.92
RBPMS2	no change (active)	CA1 (caspase activation)	-1.84	6.8
IL34	no change	no change	0.82	-1.06
AZIN1	no change	no change	0.62	-0.19
GRWD1	no change	no change	-0.44	1.01
GAGE12I	no change	no change	0.39	0.62
SHQ1	no change	no change	0.96	-0.34
ERICH5	no change	no change	0.2	-0.51
NSUN4	no change	no change	1.07	1.55
ZP2	no change	no change	1.25	0.08
RAB11FIP3	no change	no change	-0.25	1.38
AP3S2	no change	no change	0.4	-0.02
TRIM10	no change	no change	0.74	0.43
CYRIB	no change	no change	0.44	0.46
TRRAP	no change	no change	-0.4	1.1
OR4F21	no change	no change	-0.98	-0.64
ABHD18	no change	no change	0.3	0.83
URM1	no change	no change	-0.27	-0.86
POLR2E	no change	no change	-3.28	4.22
KCNJ15	no change	no change	-0.68	0.23
ATF7IP	no change	no change	0.59	0.36
ASB7	no change	no change	0.84	-0.39
GPAT3	no change	no change	1.08	-0.41
C12orf57	no change	no change	1.58	1.44
LRP10	no change	no change	0.04	-0.48
VMP1	no change (active)	CA1 (caspase activation)	-1.93	6.26
ADAP1	no change	no change	-0.41	0.9
CDK15	no change	no change	0.57	-0.62
MCMBP	no change	no change	0.27	-0.71
BCL10	no change	no change	0.05	0.75
